Results are given in words; binding and its absence hold for the method and conditions named. In cells and extracts the contact can be indirect. Binding can be weak; no strength is given. For part of these data: Tags and fused reporters may be left off the sequences shown.
T1: Flag-CENP-B (human) (UniProt P07199)
T1 sequence: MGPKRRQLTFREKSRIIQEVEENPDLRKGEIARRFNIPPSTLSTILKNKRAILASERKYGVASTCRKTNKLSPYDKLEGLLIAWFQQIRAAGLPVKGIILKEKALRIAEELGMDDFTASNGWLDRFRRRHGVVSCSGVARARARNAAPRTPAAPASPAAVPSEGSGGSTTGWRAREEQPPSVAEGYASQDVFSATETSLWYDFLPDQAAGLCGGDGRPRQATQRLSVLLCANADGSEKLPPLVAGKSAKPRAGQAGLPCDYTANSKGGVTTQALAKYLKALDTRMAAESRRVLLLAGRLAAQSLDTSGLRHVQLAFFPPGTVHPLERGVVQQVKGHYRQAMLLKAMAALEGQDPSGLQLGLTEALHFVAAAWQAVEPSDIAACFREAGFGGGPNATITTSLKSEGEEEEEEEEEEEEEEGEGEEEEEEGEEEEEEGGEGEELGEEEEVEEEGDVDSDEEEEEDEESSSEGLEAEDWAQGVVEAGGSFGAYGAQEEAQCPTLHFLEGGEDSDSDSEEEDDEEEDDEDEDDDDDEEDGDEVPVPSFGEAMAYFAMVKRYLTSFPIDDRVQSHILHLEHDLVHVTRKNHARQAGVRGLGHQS


Assays:
Flag-CENP-B (human) = target: T1, Flag-CENP-B (human); experiment: co-IP; HeLa cells transfected transiently for 24 h, lysed in RIPA buffer (50 mM Tris pH 7.5, 150 mM NaCl, 1 mM EDTA, 0.25% sodium deoxycholate, 1% NP-40); anti-Flag overnight at 4 °C, Protein A/G plus-Sepharose; Western blot; control IgG
His-INMAP = experiment: pull-down; Ni2+ beads with His-INMAP incubated with HeLa cell extract for 2 h, washed, eluted by boiling; Western blot with anti-CENP-B; control with empty beads; only the target purified
Flag-INMAP = experiment: co-IP; HeLa cells transfected transiently for 24 h, lysed in RIPA buffer (50 mM Tris pH 7.5, 150 mM NaCl, 1 mM EDTA, 0.25% sodium deoxycholate, 1% NP-40); anti-Flag overnight at 4 °C, Protein A/G plus-Sepharose; Western blot; control IgG

| Molecule | binding (Flag-CENP-B (human)) | binding (His-INMAP) | binding (Flag-INMAP) |
| --- | --- | --- | --- |
| INMAP (human (endogenous in HeLa)) | binds | – | – |
| CENP-B (protein, UniProt P07199 1-599) MGPKRRQLTFREKSRIIQEVEENPDLRKGEIARRFNIPPSTLSTILKNKRAILASERKYGVASTCRKTNKLSPYDKLEGLLIAWFQQIRAAGLPVKGIILKEKALRIAEELGMDDFTASNGWLDRFRRRHGVVSCSGVARARARNAAPRTPAAPASPAAVPSEGSGGSTTGWRAREEQPPSVAEGYASQDVFSATETSLWYDFLPDQAAGLCGGDGRPRQATQRLSVLLCANADGSEKLPPLVAGKSAKPRAGQAGLPCDYTANSKGGVTTQALAKYLKALDTRMAAESRRVLLLAGRLAAQSLDTSGLRHVQLAFFPPGTVHPLERGVVQQVKGHYRQAMLLKAMAALEGQDPSGLQLGLTEALHFVAAAWQAVEPSDIAACFREAGFGGGPNATITTSLKSEGEEEEEEEEEEEEEEGEGEEEEEEGEEEEEEGGEGEELGEEEEVEEEGDVDSDEEEEEDEESSSEGLEAEDWAQGVVEAGGSFGAYGAQEEAQCPTLHFLEGGEDSDSDSEEEDDEEEDDEDEDDDDDEEDGDEVPVPSFGEAMAYFAMVKRYLTSFPIDDRVQSHILHLEHDLVHVTRKNHARQAGVRGLGHQS | – | binds | binds |

From PMC3954832
